According to the supplement of paper PMC10338343:
± gives the standard deviation. Only a part is listed here, and it is no random draw. Many entries were measured with a wide error. The list shows a part of the results.

Tests used:
[1] = tested on: MILI (PIWIL2) piRISC loaded with L1MC piRNA (26 nt); assay: pre-steady-state target cleavage rate (min^-1); higher = faster piRNA-guided slicing of the target; details: guide: L1MC piRNA 5'p-UAACUAAAUACUAUGCAAGCUGUAGG
Procedure, shortened: (§1)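 At 33 °C in HEPES–potassium acetate buffer, a transcribed, DNA-blocked target RNA library […] was exposed for 0–8 or 0–960 min to 1 nM active affinity-purified piRISC carrying a single synthetic guide, with or without 500 nM GTSF1 partner protein. Uncleaved targets were sequenced and normalised to depth and to weakly complementary targets. With three trials pooled and k3 capped at 0.0001 min^-1, a burst-and-steady-state fit produced the pre-steady-state cleavage rate.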

[2] = tested on: MIWI (PIWIL1) piRISC loaded with L1MC piRNA (30 nt); assay: as above; details: guide: L1MC piRNA 5'p-UAACUAAAUACUAUGCAAGCUGUAGGUCCU
Procedure, shortened: as §1

[3] = tested on: EfPiwi piRISC loaded with L1MC piRNA (26 nt); assay: pre-steady-state target cleavage rate (min^-1); guide: L1MC piRNA 5'p-UAACUAAAUACUAUGCAAGCUGUAGG; MIWI and MILI are mouse PIWI proteins and EfPiwi is from a freshwater sponge; tags in brackets are library labels; higher = faster piRNA-guided slicing of the target
Procedure, shortened: as §1

[4] = auxiliary factor: 500 nM mouse GTSF1
[5] = auxiliary factor: none (no GTSF1)
[6] = auxiliary factor: 500 nM Ephydatia muelleri Gtsf1
[7] = auxiliary factor: none (no Gtsf1)

Sequence | pre-steady-state target cleavage rate [1, 4] | pre-steady-state target cleavage rate [2, 4] | pre-steady-state target cleavage rate [2, 5] | pre-steady-state target cleavage rate [3, 6] | pre-steady-state target cleavage rate [3, 7] | pre-steady-state target cleavage rate [1, 5]
UCCUGGAACAGCUUGUAUAGUAUUUAGUUA | 0.323 ± 0.017 | 1.37 ± 0.056 | 0.0564 ± 0.012 | 0.0686 ± 0.013 | 0.00519 ± 0.0044 | 
UCCUGGAUGAGCUUGCUAAGUAUUUAGAAA |  | 0.0015 ± 0.0075 | 0.000479 ± 0.0051 | 0.000338 ± 0.011 | 0.000131 ± 0.029 | 0.0007 ± 0.0077
UCCUGGUACAGCUUGCAAUCUAUUUACAAA |  | 0.000775 ± 0.017 | 0.000492 ± 0.0099 | 0.000122 ± 0.036 | 0.000304 ± 0.022 | 0.00105 ± 0.0068
UCCUGGAUGAGCUUGGUUAGUAUUUAGAAA |  | 0.000968 ± 0.011 | 0.000906 ± 0.0086 | 0.000696 ± 0.008 | 0.000361 ± 0.019 | 0.00149 ± 0.0052
UCCUGGAUGUCCUUGCAAAGUAUUUAGUAA |  |  | 0.00232 ± 0.0026 | 0.00159 ± 0.0042 | 0.000475 ± 0.012 | 
UCCUGGAUGUGCUACCAUAGUAUUUAGUAA |  | 0.000992 ± 0.011 | 0.000609 ± 0.0084 | 0.00172 ± 0.0041 | 0.000519 ± 0.015 | 0.000798 ± 0.0079
UCCUGGAUGAGCUACGAUAGUAUUUAGAAA |  | 0.00063 ± 0.015 | 0.000742 ± 0.0072 | 0.000953 ± 0.0078 | 0.000485 ± 0.013 | 0.000106 ± 0.032
UCCUGGAUGUCGUUGCAUAGUAUUUAGAUA |  | 0.00174 ± 0.0064 | 0.00217 ± 0.0038 | 0.000779 ± 0.0034 | 0.00063 ± 0.01 | 0.00206 ± 0.0038
UCCUGGAUGAGCUAGGAUAGUAUUUAGUUA |  |  | 0.0019 ± 0.0039 | 0.000634 ± 0.0084 | 0.000168 ± 0.055 | 
UCCUGGUACAGGAAGCAUAGUAUUUUCAAA |  |  | 0.000507 ± 0.012 | 0.000368 ± 0.011 | 0.000529 ± 0.012 | 
UCCUGGAUGUCGAAGCAUAGUAUUUAGUAA |  | 0.00186 ± 0.006 | 0.000994 ± 0.0064 | 0.00141 ± 0.0042 | 0.000224 ± 0.031 | 0.00224 ± 0.0026
UCCUGGAUGUCCUUGCAUAGUUAUUAGUUA |  | 0.00289 ± 0.0037 | 0.00164 ± 0.0048 | 0.00117 ± 0.0068 | 0.000472 ± 0.014 | 0.0025 ± 0.0033
UCCUGGAUGUCGUUACAUAGUAUUUAGUUA |  |  | 0.000783 ± 0.0087 | 0.00184 ± 0.0056 | < 0.0001 | 
UCCUGGUAGUCCUUGCAUAGUAUUUACAAA |  | 0.00219 ± 0.0057 | 0.000842 ± 0.0072 | 0.00121 ± 0.0062 | 0.00041 ± 0.015 | 0.000911 ± 0.0064
UCCUGCUACAGCUUGCAAACUAUUUAGUUA |  | 0.363 ± 0.027 | 0.00719 ± 0.0031 | 0.00535 ± 0.002 | 0.000585 ± 0.012 | 0.00237 ± 0.0034
UCCUGGAUGUCGAUGCAUAGUAUUUAGUUUA |  |  | 0.00139 ± 0.0063 | 0.00642 ± 0.0029 | 0.00107 ± 0.0084 | 
UCCUGGAACUCCUUGCAUAGUAUUUUCAAA |  |  | 0.00101 ± 0.0052 | 0.000574 ± 0.0067 | 0.000381 ± 0.014 | 
UCCUGGAUGUCGAAGCAUAGUAUUCUAGUUA |  |  | 0.000463 ± 0.011 | 0.000175 ± 0.023 | 0.00013 ± 0.023 | 
UCCUGCUACAGCUUGCUAUGUAUUUUCAAA |  |  | 0.000164 ± 0.019 | 0.000876 ± 0.0062 | 0.000237 ± 0.015 | 
UCCUGGAUGAGCUUGCAUGAGUAUUUAGUUA |  | 0.00111 ± 0.01 | 0.000568 ± 0.0088 | 0.000583 ± 0.0073 | 0.000151 ± 0.033 | 0.00109 ± 0.0051
UCCUGGUACAGCUUGCAUAGUAUUUUCAUA |  |  | 0.00236 ± 0.0032 | 0.00254 ± 0.0041 | 0.0012 ± 0.013 | 
UCCUGGAUGUGCUUGCAUAGUAAUUAGAAA |  | 0.00357 ± 0.004 | 0.00207 ± 0.0031 | 0.00219 ± 0.0033 | 0.000149 ± 0.051 | 0.000635 ± 0.01
UCCUGGAUCAGCUUGCAUUCAAUUUAGAAA |  |  | 0.000624 ± 0.007 | 0.000741 ± 0.0051 | 0.000194 ± 0.025 | 

Look-ups from the entries so far:
Entry for UCCUGGAUGAGCUUGCUAAGUAUUUAGAAA under pre-steady-state target cleavage rate [3, 7]: 0.000131 ± 0.029
Entry for UCCUGGAUGUCCUUGCAUAGUUAUUAGUUA under pre-steady-state target cleavage rate [2, 5]: 0.00164 ± 0.0048
Entry for UCCUGGUAGUCCUUGCAUAGUAUUUACAAA under pre-steady-state target cleavage rate [3, 6]: 0.00121 ± 0.0062
Entry for UCCUGGAACAGCUUGUAUAGUAUUUAGUUA under pre-steady-state target cleavage rate [3, 6]: 0.0686 ± 0.013

Continued.

Sequence | pre-steady-state target cleavage rate [1, 4] | pre-steady-state target cleavage rate [2, 4] | pre-steady-state target cleavage rate [2, 5] | pre-steady-state target cleavage rate [3, 6] | pre-steady-state target cleavage rate [3, 7] | pre-steady-state target cleavage rate [1, 5]
UCCUGGAUGUCGCUGCAUAGUAUUUAGUUA |  |  | 0.00177 ± 0.0043 | 0.00471 ± 0.0025 | 0.00089 ± 0.012 | 
UCCUGGAUGUCCUAGCAUAGAAUUUAGUUA |  | 0.00187 ± 0.0077 | 0.000974 ± 0.0059 | 0.00097 ± 0.0048 | 0.000147 ± 0.05 | 0.00216 ± 0.003
UCCUGGAUGUCGUAGCAUAGUAUUUAGAUA |  | 0.000965 ± 0.0094 | 0.00025 ± 0.017 | 0.00105 ± 0.0061 | 0.000554 ± 0.011 | 0.000566 ± 0.011
UCCUGGAACACGAUGCAUAGUAUUUAGAAA |  | 0.00367 ± 0.0045 | 0.00159 ± 0.0052 | 0.0019 ± 0.003 | 0.00015 ± 0.031 | 0.00159 ± 0.0039
UCCUGGAUGUGCUAGCAUAGUAUAUAGUUA |  | 0.0106 ± 0.0042 | 0.00211 ± 0.0048 | 0.000443 ± 0.0094 | 0.000271 ± 0.028 | 0.00166 ± 0.0057
UCCUGGAUGUCGAUGCAUAGUAUUUAGUUC [g2:g17:cont:t1C] |  |  | 0.00199 ± 0.0042 | 0.000635 ± 0.0065 | 0.000319 ± 0.02 | 
UCCUCCUACAGCUUGCAUAGUUAAUAGAAA |  | 0.0486 ± 0.014 | 0.00114 ± 0.0059 | 0.00366 ± 0.0031 | 0.000431 ± 0.0092 | 0.000854 ± 0.0069
UCCUGGAUGUGCUUGCAUAUAUUUAGUUA |  | 0.00388 ± 0.0049 | 0.002 ± 0.0038 | 0.000735 ± 0.0075 | 0.000717 ± 0.013 | 0.00196 ± 0.003
UCCUGGAUGUCGAAGCAUAGUAUCUAGUUA |  |  | 0.000922 ± 0.0061 | 0.00129 ± 0.0053 | 0.000241 ± 0.027 | 
UCCUGGAUGUCGAUGCAUACUAUUUAGUUA |  | 0.00289 ± 0.0037 | 0.000848 ± 0.0068 | 0.00161 ± 0.0027 | 0.000322 ± 0.017 | 0.00209 ± 0.0029
UCCUGGAUGUGCUUCGUUAGUAUUUAGAAA |  |  | 0.000345 ± 0.018 | 0.000257 ± 0.011 | 0.000442 ± 0.018 | 
UCCUGGAACAGGAAGCAUAGUAUUUAGAAA |  | 0.00196 ± 0.0046 | 0.000532 ± 0.0064 | 0.000811 ± 0.0047 | 0.00042 ± 0.015 | 0.000815 ± 0.0057
UCCUGGAUGUCGUUGCAUAGUAUUUAGUUG [g2:g18:cont:t1G] |  |  | 0.00159 ± 0.0038 | 0.00135 ± 0.0049 | 0.000189 ± 0.051 | 
UCCUGGAUGUGCUUCGAUAGUAUUUAGUUA |  | 0.00201 ± 0.0065 | 0.000857 ± 0.008 | 0.0013 ± 0.0058 | 0.00043 ± 0.017 | 0.00259 ± 0.0036
UCCUGGUACAGCUUGCAUAGUUAAUACAAA |  | 0.00427 ± 0.0047 | 0.000634 ± 0.0072 | 0.000598 ± 0.0054 | 0.000755 ± 0.011 | 0.000999 ± 0.0063
UCCUGGAUCACGUUGCAUAGUAUUUACAAA |  | 0.00232 ± 0.005 | 0.00186 ± 0.0038 | 0.0017 ± 0.0063 | 0.000367 ± 0.021 | 0.0017 ± 0.0042
UCCUGGAACAGCUUGCUAUCAUAAAUCAAA [g15:g23:cont:t1A] |  |  | 0.00059 ± 0.011 | 0.0014 ± 0.0052 | < 0.0001 | 
UCCUGGAUGUGCUUGGUUAGUAUUUAGAAA |  | 0.000578 ± 0.015 | 0.00133 ± 0.0062 | 0.000372 ± 0.011 | 0.000157 ± 0.078 | 0.0031 ± 0.0034
UCCUGGAUGUGCUUGCAUAGUAUUAUGUAA |  | 0.00267 ± 0.0055 | 0.000969 ± 0.0084 | 0.00108 ± 0.0057 | 0.0002 ± 0.043 | 0.000518 ± 0.011
UCCUGGAUCAGCUUGCUUAGUUUUUAGUUA |  | 0.0882 ± 0.01 | 0.0125 ± 0.0034 | 0.00518 ± 0.0042 | 0.000488 ± 0.016 | 0.00306 ± 0.0033
UCCUGGUACAGCUUCGUUAGUAUUUAGUAA |  |  | 0.00142 ± 0.0052 | 0.000239 ± 0.024 | 0.000353 ± 0.024 | 
UCCUGGAUGUCGAUGCAUAGUAUAUAGUUA |  |  | 0.000955 ± 0.0071 | 0.00162 ± 0.005 | 0.000613 ± 0.0088 | 
